The list is a part of this screen's results and no random one: it is rich in T/C values a quarter to a half above the control, in often repeated tests (any T/C) and in doses without a T/C. Further doses and runs are listed elsewhere. T/C is the treated group as % of the vehicle group. Some doses have a count of surviving animals in place of a T/C: the source holds a T/C of zero for them, seemingly a mark for toxic or unscored doses. Some doses without a T/C left all or most animals alive at the check, yet need not have been tolerated: survival well below the control is almost never listed, so the zero probably covers shortened survival too. Counts of survivors are from the toxicity check (mostly the fifth day) where no day follows; animals may have died later. Schedule codes are those of the source, taken here to give the interval after Q, in days (D) or hours (H), and the number of doses after X. Some entries were tested several times; their values stand side by side, smallest first. Some schedule codes hold Z or #, which are not explained here. Where survival is the endpoint, the PubChem record calls one and a half times the control and up active, and a quarter to a half above the control has no call in these data; cut-offs in other NCI protocols can differ.

The test system of this assay is L1210 leukemia ip in BDF1 mice, survival T/C. Put plainly: NCI In Vivo Anticancer Drug Screen. Data for tumor model L1210 Leukemia (intraperitoneal) in B6D2F1 (BDF1) mice. Conditions: T/C endpoint: mean survival time, higher T/C = longer survival.
[1] abbreviates: dose: 400.0 mg/kg/injection, schedule: Q04DX002 (ip), vehicle: Klucel (hydroxypropylcellulose) (HPC).
The mark [2] stands for this setting: dose: 400.0 mg/kg/injection, schedule: Q04DX003 (ip), vehicle: Klucel (hydroxypropylcellulose) (HPC).
The mark [3] stands for this setting: dose: 100.0 mg/kg/injection, schedule: Q01DX009 (ip), vehicle: saline with Tween-80.
Setting [4] is: dose: 200.0 mg/kg/injection, schedule: Q04DX002 (ip), vehicle: saline with Tween-80.
[5] abbreviates: dose: 100.0 mg/kg/injection, schedule: Q01DX009 (ip), vehicle: Klucel (hydroxypropylcellulose) (HPC).
Setting [6] is: dose: 200.0 mg/kg/injection, schedule: Q01DX009 (ip), vehicle: Klucel (hydroxypropylcellulose) (HPC).
Where [7] appears, read: dose: 400.0 mg/kg/injection, schedule: Q04DX003 (ip), vehicle: saline with Tween-80.
The mark [8] stands for this setting: dose: 400.0 mg/kg/injection, schedule: Q01DX001 (ip), vehicle: Klucel (hydroxypropylcellulose) (HPC).
Setting [9] is: dose: 200.0 mg/kg/injection, schedule: Q04DX003 (ip), vehicle: saline with Tween-80.
Setting [10] is: dose: 400.0 mg/kg/injection, schedule: Q01DX009 (ip), vehicle: saline with Tween-80.

As for `O=C(CC[n+]1ccccc1)NCCCCCCNC(=O)CC[n+]1ccccc1`, the survivor count was 0 of 6 (dose: 10.0 mg/kg/injection, schedule: Q01DX001 (ip), vehicle: saline); 0 of 6 (dose: 20.0 mg/kg/injection, schedule: Q01DX001 (ip), vehicle: saline); 0 of 6 (dose: 40.0 mg/kg/injection, schedule: Q01DX001 (ip), vehicle: saline); 0 of 6 (dose: 80.0 mg/kg/injection, schedule: Q01DX001 (ip), vehicle: saline). In the case of `C1=CC2CC1CC2/C=N\N=C\C1CC2C=CC1C2` (centres undefined), the survivor count under setting [1] is listed as 1 of 3. Regarding `Cn1c(CCN=C(N)CSS(=O)(=O)O)nc2ccccc21`, the survivor count (dose: 100.0 mg/kg/injection, schedule: Q04DX002 (ip), vehicle: Klucel (hydroxypropylcellulose) (HPC)) was 0 of 3 and the survivor count under setting [1] is given as 0 of 3.

For `CC(C)C(C#N)c1ccccc1` (centres undefined), the survivor count (dose: 100.0 mg/kg/injection, schedule: Q04DX003 (ip), vehicle: Klucel (hydroxypropylcellulose) (HPC)) is 0 of 6. With `CCCCCCCCCCCC(=O)NC(=S)Nc1ccccc1F`, under setting [2], the survivor count is given as 0 of 6. On to `CCCCCC(=O)N1CCCCC1C` (centres undefined), for which the survivor count is 0 of 3 and 1 of 6 (dose: 200.0 mg/kg/injection, schedule: Q01DX009 (ip), vehicle: carboxymethylcellulose (CMC)); 3 of 3 (dose: 200.0 mg/kg/injection, schedule: Q04DX002 (ip), vehicle: carboxymethylcellulose (CMC)); 0 of 3 (dose: 400.0 mg/kg/injection, schedule: Q04DX002 (ip), vehicle: carboxymethylcellulose (CMC)). On to `C[N+]1(C)CC2C3C=CC(C3)C2C1` (centres undefined), for which the survivor count under setting [2] is reported as 0 of 6.

For the compound `S=C=NCCCCCCCCCCCCN=C=S`, the survivor count runs as follows: (dose: 25.0 mg/kg/injection, schedule: Q01DX009 (ip), vehicle: saline with Tween-80) 1 of 3 and 4 of 6; (dose: 50.0 mg/kg/injection, schedule: Q01DX009 (ip), vehicle: saline with Tween-80) 0 of 3; under setting [3], 1 of 3; (dose: 100.0 mg/kg/injection, schedule: Q04DX002 (ip), vehicle: saline with Tween-80) 1 of 3; under setting [4], 1 of 3; (dose: 400.0 mg/kg/injection, schedule: Q04DX002 (ip), vehicle: saline with Tween-80) 1 of 3. Take `COc1ccc(CN(C)C)c(C(O)c2ccccc2)c1` (centres undefined): under “dose: 400.0 mg/kg/injection, schedule: Q01DX001 (ip), vehicle: carboxymethylcellulose (CMC)”, the survivor count is reported as 0 of 4. On to `CN(C)c1ccc(/C=N/N=C(N)N)cc1`, for which the survivor count is 0 of 6 (dose: 120.0 mg/kg/injection, schedule: Q01DX Z (ip), vehicle: saline) and 0 of 6 (dose: 240.0 mg/kg/injection, schedule: Q01DX Z (oral), vehicle: other).

Regarding `CCCC(CCC)NCCOC(=O)c1ccc(N)cc1`, the survivor count reads like this: (dose: 150.0 mg/kg/injection, schedule: Q01DX001 (ip), vehicle: other) 0 of 6; (dose: 300.0 mg/kg/injection, schedule: Q01DX001 (ip), vehicle: other) 0 of 6. As to `O=C(COc1cccc(Cl)c1)Nc1cccnc1`, the survivor count (dose: 50.0 mg/kg/injection, schedule: Q01DX009 (ip), vehicle: Klucel (hydroxypropylcellulose) (HPC)) is listed as 6 of 6; the survivor count under setting [5] is 3 of 6 and 6 of 6; the survivor count under setting [6] is 2 of 6 and 4 of 6; the survivor count under setting [2] is 0 of 6. In the case of `CC1=CC(=O)C(C)(C)C=C1`, under setting [7], the survivor count is reported as 2 of 6. On to `Nc1nc(N)nc(-c2ccc(NC(=O)c3ccccc3[N+](=O)[O-])cc2)n1`, for which the survivor count under setting [8] is listed as 6 of 6. Still for that read-out and setting: with `CCN(CC)CCn1c(CC23CC4CC(CC(C4)C2)C3)nc2cc([N+](=O)[O-])ccc21` the figure was 6 of 6.

For `CCCCCCCC[n+]1cccc(C(N)=O)c1`, the survivor count under setting [7] is 0 of 6.

`COc1cc(C)c(Cc2cnc(N)nc2N)cc1OC`: under setting [2], the survivor count is listed as 4 of 6. Consider `CCCCCC[As](=O)(O)CCCCCC`, for which the survivor count is 2 of 4 (dose: 100.0 mg/kg/injection, schedule: Q01DX001 (ip), vehicle: saline); 0 of 4 (dose: 200.0 mg/kg/injection, schedule: Q01DX001 (ip), vehicle: saline); 0 of 4 (dose: 400.0 mg/kg/injection, schedule: Q01DX001 (ip), vehicle: saline). On to `COc1cc2cc[n+](C)c(Cc3ccccc3)c2cc1OC`, for which the survivor count is given as 0 of 6 under setting [3]; 0 of 6 (dose: 100.0 mg/kg/injection, schedule: Q04DX003 (ip), vehicle: saline with Tween-80); 0 of 6 under setting [9]; 0 of 6 under setting [7]. As to `COC(=O)CC(=O)c1cc(C(C)(C)C)cc(C(C)(C)C)c1`, the survivor count (dose: 400.0 mg/kg/injection, schedule: Q04DX003 (ip), vehicle: DMSO) is given as 5 of 6.

`COC(=O)CCC(=O)CCC(C)C`: the survivor count under setting [9] is given as 0 of 6.

In the case of `CCCCCCCCCCCC(=O)NC(=S)Nc1ccccc1C(=O)OC`, the survivor count under setting [3] is listed as 3 of 3. With `O=C1c2ccccc2C(C(O)(C(F)(F)F)C(F)(F)F)c2ccccc21`, the survivor count under setting [7] was 3 of 6. As to `NC(N)=N/N=C/c1cc([N+](=O)[O-])ccc1O`, the survivor count reads like this: (dose: 240.0 mg/kg/injection, schedule: Q01DX Z (oral), vehicle: saline) 2 of 6; (dose: 480.0 mg/kg/injection, schedule: Q01DX Z (oral), vehicle: saline) 1 of 6. Turning to `NC(=O)NC(=O)COc1ccc(Cl)cc1Cl`, under “dose: 400.0 mg/kg/injection, schedule: Q04DX002 (ip), vehicle: saline + alcohol”, the survivor count is reported as 0 of 3.

Regarding `O=C(Cn1cnc2c(=S)nc[nH]c21)Oc1ccc([N+](=O)[O-])cc1`, the survivor count is 5 of 6 (dose: 200.0 mg/kg/injection, schedule: Q01DX009 (ip), vehicle: saline with Tween-80) and 0 of 6 under setting [10].

For the compound `COc1ccccc1C(c1ccccc1OC)N(C)C(C)(C)CO`, the survivor count was 3 of 6 under setting [5]; 0 of 6 under setting [6]; 0 of 6 (dose: 400.0 mg/kg/injection, schedule: Q01DX009 (ip), vehicle: Klucel (hydroxypropylcellulose) (HPC)). For the compound `CCOC(=O)CNC(=O)Nc1ccccc1F`, the T/C (dose: 100.0 mg/kg/injection, schedule: Q01DX009 (ip), vehicle: gum acacia) was 96, 98, 103, 106 % of control and the T/C (dose: 200.0 mg/kg/injection, schedule: Q01DX009 (ip), vehicle: gum acacia) is recorded as 94, 96, 98, 107 % of control. For the compound `CCSc1ncc2cnccn12`, the survivor count is, setting by setting: (dose: 100.0 mg/kg/injection, schedule: Q01DX009 (ip), vehicle: water) 3 of 6; (dose: 200.0 mg/kg/injection, schedule: Q04DX003 (ip), vehicle: water) 0 of 6; (dose: 400.0 mg/kg/injection, schedule: Q04DX003 (ip), vehicle: water) 0 of 6.

Take `S=c1cccc[nH]1.[Pb]`: under “dose: 400.0 mg/kg/injection, schedule: Q04DX002 (ip), vehicle: gum acacia”, the survivor count is given as 0 of 3. Take `CSc1ncc(C=O)c(N)n1`: under setting [10], the survivor count was 3 of 6. Consider `c1ccc2c(c1)CC1Sc3ccccc3N=C21` (centres undefined), for which the survivor count under setting [7] is 1 of 6. Consider `O=C(O)c1cc(O)c(Br)c(O)c1`, for which the survivor count (dose: 300.0 mg/kg/injection, schedule: Q01DX009 (ip), vehicle: other) is recorded as 6 of 6. On to `CSc1ccc(NC(=O)Nc2ccccc2C(N)=O)cc1`, for which the survivor count (dose: 400.0 mg/kg/injection, schedule: Q01DX009 (ip), vehicle: saline) is reported as 6 of 6.

On to `CCOC(CN(Cc1ccccc1)CC(OCC)OCC)OCC`, for which the survivor count under setting [4] is listed as 3 of 3. Still for that read-out and setting: with `c1ccc(-c2oc(-c3ccccc3)c3c(-c4ccccc4)cccc23)cc1` the figure was 3 of 3.

Source of the values: PubChem BioAssay AID248 (DTP/NCI, 2004).
